Measured values as given in the supplement of paper PMC3334620.
Over roughly 33,000 sequences, “E-score (-0.5 to 0.5)” has its median near -0.0034; the highest 2% begin near 0.25. Some of the results follow.

molecular target: T1, Yap3 (UniProt P38749); assay: PBM E-score (8-mer binding enrichment) (E-score (-0.5 to 0.5)); higher = stronger / more preferred TF binding; settings: protein concentration: 100 nM; construct: GST-full length
T1 sequence: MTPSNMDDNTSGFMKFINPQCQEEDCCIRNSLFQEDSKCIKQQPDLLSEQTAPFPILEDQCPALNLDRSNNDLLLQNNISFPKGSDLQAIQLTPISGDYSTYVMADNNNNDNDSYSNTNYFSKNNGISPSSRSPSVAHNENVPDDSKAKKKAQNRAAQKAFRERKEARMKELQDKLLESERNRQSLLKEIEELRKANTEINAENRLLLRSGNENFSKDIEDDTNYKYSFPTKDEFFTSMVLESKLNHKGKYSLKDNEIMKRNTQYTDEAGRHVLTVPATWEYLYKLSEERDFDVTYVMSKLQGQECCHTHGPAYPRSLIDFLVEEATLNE
Procedure: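 Universal 'all 10-mer' protein binding microarrays (Agilent AMADID 015681) probed with GST-tagged S. cerevisiae TFs (full-length or DBD) made by in vitro transcription/translation (PURExpress), about 100-200 nM. Bound TF was detected with fluorescent anti-GST. Each ungapped 8-mer (which stands for itself and its reverse complement) is scored by the PBM enrichment score (E-score), a modified Wilcoxon-Mann-Whitney statistic from -0.5 to +0.5, computed with the Universal PBM Analysis Suite. Scale: above 0.35 generally sequence-specific binding.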

| Sequence | PBM E-score |
| --- | --- |
| CACATCAG | -0.149 |
| GGGTAGTA | 0.0247 |
| AGTACGCC | -0.283 |
| ACGGTCTC | -0.179 |
| CCTAACAC | 0.191 |
| CGGCTTAG | -0.138 |
| ACTCCCTA | -0.147 |
| GACTTACA | -0.0187 |
| CACTAGTA | 0.103 |
| GATGCCTA | -0.197 |
| GCGGTGCC | -0.263 |
| CCCGCTAA | -0.195 |
| TAAATCGA | 0.151 |
| ACCAGGCC | 0.0362 |
| CAGTGGGG | -0.264 |
| GAGGAAAC | 0.0241 |
| CTGCTGTC | -0.146 |
| ATCGAGTC | -0.0569 |
| ACCTATAA | 0.0216 |
| AACAGATA | 0.172 |
| AGCGCGGG | 0.0204 |
| CAACATTG | 0.115 |
| CCGAAGCA | 0.0705 |
| CGTGACAG | -0.154 |
| CACCACAC | 0.096 |

| Sequence | PBM E-score |
| --- | --- |
| ATCCGACA | 0.0167 |
| GACTTTCC | -0.0359 |
| AGACGATG | 0.0569 |
| GCTGGATA | 0.0666 |
| ATCTGCAC | -0.0329 |
| CATGTAGA | 0.139 |
| GGTGTATA | -0.162 |
| AGTTTCGC | 0.0657 |
| ACCTTAAC | 0.076 |
| GATGCCAC | -0.201 |
| ATTAAGAG | -0.0603 |
| ACCAGCCC | -0.176 |
| AACCGTCC | -0.213 |
| CCTATATA | 0.112 |
| ACCCGACA | -0.0364 |
| ATACGGGA | -0.138 |
| CGATTGAC | 0.0861 |
| AGACTCCG | -0.0253 |
| CAAGCTAA | -0.0766 |
| ACGCCAGA | -0.0143 |
| AAACAGTG | 0.133 |
| AGGGGAGG | -0.111 |
| ATCCACAT | 0.103 |
| CGCGGTGC | -0.183 |
| CTTCCTGA | 0.0452 |

| Sequence | PBM E-score |
| --- | --- |
| AGCGTCCA | -0.147 |
| AATATTTG | 0.242 |
| CAACTTCG | 0.0376 |
| CCCGGCCG | -0.278 |
| GCGTCCTA | -0.0921 |
| CCCAGCAC | -0.123 |
| AATACTGG | 0.104 |
| CATACATC | 0.102 |
| CAAAGCCA | -0.011 |
| GGGTACCC | -0.452 |
| AGATTCTG | -0.219 |
| CGGTTGAC | -0.0195 |
| GATTGCGA | 0.108 |
| CATATCAG | 0.064 |
| CAGACCCA | -0.187 |
| CTGCTAGA | -0.0935 |
| CGTAAAGA | 0.0398 |
| CCACTCCA | -0.0642 |
| CATTGCCA | 0.103 |
| CGAGATCA | 0.101 |
| AGCCGACG | -0.00612 |
| TCAAGCAA | -0.15 |
| CCGCGTGA | 0.142 |
| CTTCGGGA | -0.0628 |
| CCATTCTA | -0.0038 |

| Sequence | PBM E-score |
| --- | --- |
| AGTACCTG | 0.0401 |
| TATCGTCA | 0.101 |
| CGAAAATC | 0.102 |
| AGCTACAT | 0.00557 |
| ACGCGGCT | 0.0253 |
| ACTTCGTG | -0.0284 |
| CCCGCATC | -0.183 |
| GATCCGCA | -0.0844 |
| TACGGCAA | 0.231 |
| AGGCTGTC | -0.211 |
| CCAGGGTC | -0.224 |
| CGAACGAC | 0.135 |
| CCTGACAA | 0.129 |
| GAATGGTC | -0.127 |
| ACAATGGT | -0.0183 |
| CCATAGTC | -0.143 |
| AAGCGATT | 0.0197 |
| AGACCTCG | -0.0204 |
| CCCGTCCA | -0.136 |
| GATAAGTA | 0.165 |
| AACCCCAA | 0.0873 |
| ATTCCAGG | -0.0192 |
| ACCTGTAC | -0.0609 |
| CTATAAGC | 0.0338 |
| CGCAATCA | 0.0506 |

At a glance, part of the list above:

| Sequence | PBM E-score |
| --- | --- |
| ACCAGGCC | 0.0362 |
| CAGTGGGG | -0.264 |
| GAGGAAAC | 0.0241 |
| CTGCTGTC | -0.146 |
| ATCGAGTC | -0.0569 |
| ACCTATAA | 0.0216 |
| AACAGATA | 0.172 |
| AGCGCGGG | 0.0204 |
| CAACATTG | 0.115 |
| CCGAAGCA | 0.0705 |
| CGTGACAG | -0.154 |
| CACCACAC | 0.096 |
| ATCCGACA | 0.0167 |
| GACTTTCC | -0.0359 |
| AGACGATG | 0.0569 |
| GCTGGATA | 0.0666 |
| ATCTGCAC | -0.0329 |
| CATGTAGA | 0.139 |
| GGTGTATA | -0.162 |
| AGTTTCGC | 0.0657 |
| ACCTTAAC | 0.076 |
| GATGCCAC | -0.201 |
| ATTAAGAG | -0.0603 |
| ACCAGCCC | -0.176 |
| AACCGTCC | -0.213 |
| CCTATATA | 0.112 |
| ACCCGACA | -0.0364 |
| ATACGGGA | -0.138 |
| CGATTGAC | 0.0861 |
| AGACTCCG | -0.0253 |
| CAAGCTAA | -0.0766 |
| ACGCCAGA | -0.0143 |
| AAACAGTG | 0.133 |

Remaining list, next part.

| Sequence | PBM E-score |
| --- | --- |
| CAGGTACG | -0.191 |
| AAGAAAAT | 0.273 |
| CAAGCGTC | -0.0794 |
| AGGCGGGA | 0.0533 |
| ATGGCTAC | 0.0819 |
| CATGCGGG | -0.149 |
| GACTACTA | 0.146 |
| GAGACATC | -0.0399 |
| GATAAGAC | 0.0444 |
| ACTTTCAA | 0.198 |
| GTAACCAA | 0.153 |
| ACACCGGA | -0.112 |
| GCCTGCGC | -0.204 |
| GACGTAAA | 0.0343 |
| GAGACGCA | 0.149 |
| GTCCAATA | 0.101 |
| GAAGGGCC | -0.187 |
| GCGCGGAA | 0.107 |
| CAGGTGTA | 0.0429 |
| GCTGCGTA | 0.0618 |
| CAGTGAAC | 0.161 |
| CAGTCGCG | -0.0232 |
| GGACACAA | 0.175 |
| CATCATAG | 0.0614 |
| ATAGCGGG | -0.136 |

| Sequence | PBM E-score |
| --- | --- |
| CCTACCAC | -0.251 |
| CTCTGCTA | -0.184 |
| CCGTGAGA | -0.162 |
| GGATGTCA | 0.113 |
| ACGCAGTA | -0.058 |
| ATCTTGCG | 0.0731 |
| ATCACTGG | 0.017 |
| CACGTTTC | -0.0641 |
| ATGCTCAA | -0.00847 |
| TATAGTGA | 0.088 |
| CGCCCACC | -0.00175 |
| TCGTAGCA | 0.0759 |
| GTGTTAAC | -0.015 |
| ACTGTAAG | 0.131 |
| ACTTAAAT | 0.0397 |
| AGCTTGTA | 0.111 |
| GCCCTACA | 0.0829 |
| ACTTAGAC | 0.117 |
| ATAAAGAT | 0.198 |
| GGAGAGAC | -0.0142 |
| ATTCCGAA | 0.195 |
| CCCTATCG | -0.164 |
| ATGGGAAC | 0.12 |
| GCATCTAA | 0.186 |
| TCTAGCAA | 0.0794 |

| Sequence | PBM E-score |
| --- | --- |
| CGTCCTTC | 0.0406 |
| CGTATAGA | -0.00979 |
| AGAAAGGC | -0.0495 |
| CACGGAAC | 0.061 |
| ACTTAGTC | 0.0573 |
| AAAGTACA | 0.27 |
| GAGTGTTA | 0.0924 |
| ACTTTGAT | 0.0469 |
| AATGGTAC | 0.13 |
| AAAAATAG | 0.225 |
| GGTGCTGA | -0.314 |
| AGCCGTCC | -0.0121 |
| ACATCCAC | -0.00353 |
| AGCTCCTA | -0.26 |
| CTATGCGC | 0.0709 |
| GCTTTTCC | -0.0257 |
| CAACCTTC | -0.049 |
| AGTAAGCA | 0.00993 |
| GAGCATCA | -0.0444 |
| TCTGATCA | 0.0734 |
| GAGGGCTA | -0.0978 |
| TCTCGCAA | 0.0895 |
